Experimental findings from patent US20200247889A1 are described below.

These are yes or no findings as the source states them, for the method shown. Some results given as binding are weak or reduced against the parent protein; the word gives no strength.

The assay has as its target T1, mouse TREM1 (mouse) (UniProt Q9JKE2).
T1 sequence (looked up): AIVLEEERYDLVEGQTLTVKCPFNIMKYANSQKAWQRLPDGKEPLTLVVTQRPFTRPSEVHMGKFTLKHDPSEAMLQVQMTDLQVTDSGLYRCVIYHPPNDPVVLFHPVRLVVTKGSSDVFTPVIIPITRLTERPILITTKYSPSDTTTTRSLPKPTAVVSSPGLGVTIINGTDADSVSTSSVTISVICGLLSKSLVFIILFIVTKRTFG
Kind of assay: in vivo receptor occupancy, flow cytometry of tumor cells. On the technique in general: In flow cytometry, cells or beads pass a laser one at a time.

B1: Pi-9069s (antibody, human IgG1, kappa, V domains shown)
VH: EVQLVESGGGLVQPGGSLRLSCAASGFDLYSSYIHWVRQAPGKGLEWVASIYPSYGYTYYADSVKGRFTISADTSKNTAYLQMNSLRAEDTAVYYCARSHSYVHGAMDYWGQGTLVTVSS
VL: DIQMTQSPSSLSASVGDRVTITCRASQSVSSAVAWYQQKPGKAPKLLIYSASSLYSGVPSRFSGSRSGTDFTLTISSLQPEDFATYYCQQYWWVPAAPITFGQGTKVEIKR
As for B1, the binding result is “binds”.
